Data on two compounds can be found in PubChem BioAssay AID652053 (Broad Institute, 2013).

Structures are written as SMILES. Out of some 1,300 compounds screened, about 930 (72%) were called active.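 Rule for the calls: active = fitted curve reaches 40% activation signal increase at or below the top valid tested concentration in every replicate test; inconclusive = replicate tests disagree in their calls; inactive = all replicate tests inactive, including effects opposite the expected signal rise.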 The set was probably picked from earlier hits. The list shows a part of the results, in another mix than the full data. Measured potencies and affinities stand elsewhere.

A short description of the test: suppression of miR-122 activity, Renilla luciferase sensor – cell-based, Huh7 psiCHECK-miR122, cherry-pick, dose response (AID 652053). The settings on record: Huh7 psiCHECK-miR122 Renilla luciferase reporter, 48 h; at 35 µM (top of the series). For orientation: Reporter assays use an easily measured gene product as a stand-in for the process of interest.
On to `Cc1oc2ccc(OC(=O)N(C)C)cc2c1C(=O)OC(C)C`, for which the activation (miR-122 inhibition) is inactive: 5.98%.
Under `COc1cc2c(c(OC)c1OC)-c1ccc(O)c(=O)cc1C(NC(C)=O)CC2` (configuration not stated) stands inactive: 25.9%.
